# The supplement of paper PMC4100887
# ± gives the standard deviation of the averaged measurements. Only a part is listed here, and it is no random draw.
# Legend:
# IMR-90 = experiment: relative cell viability (ATPlite) vs untreated control (fraction); higher = less toxic; conditions: 1 µM; 72 h
# K562 [1] = experiment: as above; conditions: 1 µM; 72 h
# K562 [2] = experiment: relative cell viability (ATPlite) vs untreated control, with imatinib (fraction); higher = less toxic; conditions: 1 µM; 72 h; imatinib 0.125 µM
structure (smiles),measurement,setting,value
O=C1Nc2ccc(-c3cccnc3)cc2/C1=C/c1ccc[nH]1 [JAK3 Inhibitor VI],relative cell viability,IMR-90,1.16 ± 0.11
same,relative cell viability,K562 [1],0.776 ± 0.079
same,relative cell viability,K562 [2],0.644 ± 0.051
